Laboratory results published in publication doi:10.1101/2021.08.25.457676.
For some assays here: The exact form of at least one protein or probe is not confirmed. For some assays here: Whether high values mean tight binding is not given here for every scale.

The chains behind the UniProt entries cited, without tags or fusion partners. Residues count along the entry.
UniProt P27695, whole entry D210A: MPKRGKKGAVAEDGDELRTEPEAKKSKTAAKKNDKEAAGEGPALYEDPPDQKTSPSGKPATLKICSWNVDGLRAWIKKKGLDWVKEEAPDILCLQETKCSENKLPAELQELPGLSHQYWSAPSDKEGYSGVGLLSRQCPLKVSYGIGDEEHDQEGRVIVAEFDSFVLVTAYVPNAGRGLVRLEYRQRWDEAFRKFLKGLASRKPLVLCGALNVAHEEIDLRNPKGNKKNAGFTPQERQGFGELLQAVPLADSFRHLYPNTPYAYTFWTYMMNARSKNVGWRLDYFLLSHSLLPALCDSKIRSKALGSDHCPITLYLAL
UniProt P27695, 62-318 D210A: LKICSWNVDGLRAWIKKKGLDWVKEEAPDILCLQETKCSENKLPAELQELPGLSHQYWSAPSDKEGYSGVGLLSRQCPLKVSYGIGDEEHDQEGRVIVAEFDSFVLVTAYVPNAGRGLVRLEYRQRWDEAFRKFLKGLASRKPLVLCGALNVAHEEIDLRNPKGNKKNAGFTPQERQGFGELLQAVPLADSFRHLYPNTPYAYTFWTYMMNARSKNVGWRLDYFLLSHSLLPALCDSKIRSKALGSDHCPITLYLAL

How the values were obtained:
Experiment in all cases: fluorescence anisotropy
[1] = target: D210A-APE1 (Homo sapiens) (UniProt P27695)
[2] = target: Δ61-D210A-APE1 D210A,del1-61 (Homo sapiens) (UniProt P27695); conditions: 10 mM Mg2+, 50 mM K+; residues 62-318
APE1 (WT) (Homo sapiens) = APE1 (WT) (Homo sapiens) (UniProt P27695); conditions: 0 Mg2+, EDTA, 50 mM K+; letters put together from the description

Sequence | Kd ([1]; 5 uM pyridostatin, 10 mM Mg2+, 50 mM K+) | Kd ([1]; 50 mM Li+ (no G4 folding)) | binding signal (fold higher Kd than without PEG) ([1]; 20% PEG-200) | Kd [2] | Kd (APE1 (WT) (Homo sapiens))
CGGGGCGGGCCGGGGGCGGGGT [VEGF-4] | 0.7 µM | > 5 µM | 2 | > 5 µM | –
CGGGGCGGGCCGGGGGCGGGGT (double strand) [dsDNA without F (VEGF)] | – | – | – | – | > 5 µM
